# Results as given in PubChem BioAssay AID540276 (National Center for Advancing Translational Sciences (NCATS), 2011).
# The whole screen tested about 300,000 compounds, of which about 5,400 (1.8%) were called active. This list was built around the results that the source calls inconclusive (neither active nor inactive); the mix of calls is not that of the screen. Calls come from the whole dose curve; tested in HEK293 cells. Where the call is inconclusive, the potency comes from a doubtful curve fit.
# Assay: qHTS for inhibitors of binding or entry into cells for Marburg Virus
# Settings: Marburg virus pseudotyped entry inhibition, cell reporter; series mostly up to 37.8 µM
# Potency is the fitted concentration of half-maximal effect.
row,SMILES,Potency
1,Cc1ccc(NC(=O)NCc2ccccn2)c(C)c1,inactive
2,C=C(CC)C(=O)c1ccc(OCC(=O)O)c(Cl)c1Cl,"inconclusive: 18.4 µM [inhibitor, single point]"
3,COc1cc(C(=O)N(Cc2ccc(F)cc2)Cc2ccco2)cc(OC)c1OC,"inconclusive: 35.5 µM [inhibitor, single point]"
4,Cc1cccc(Oc2nc3ccccn3c(=O)c2/C=C(\C#N)C(=O)NC2CCS(=O)(=O)C2)c1C (stereo unspecified),"inconclusive: 1.41 µM [inhibitor, full curve, poor fit]"
5,O=C(Nc1nc(-c2ccccc2)cs1)c1ccccc1F,"inconclusive: 3.55 µM [activator, single point]"
6,COc1ccc(/C=N/NC(=O)c2nonc2C)cc1,inactive
7,COc1ccccc1NC(=O)COC(=O)c1ccccc1SCC(=O)N1CCCC1,"inconclusive: 5.62 µM [activator, single point]"
8,Cc1ccc(C)c(OCCn2c(C3CC(=O)N(Cc4ccc(F)cc4)C3)nc3ccccc32)c1 (stereo unspecified),inactive
9,c1ccc(COc2ccc(OCCN3CCCC3)cc2)cc1,"inconclusive: 22.4 µM [inhibitor, single point]"
10,COc1cc(C=O)ccc1OS(=O)(=O)c1ccc(NC(C)=O)cc1,"inconclusive: 35.5 µM [activator, single point]"
11,Cc1ccc(S(=O)(=O)NC(CC(C)C)C(=O)NCC(C)(C)N2CCOCC2)cc1 (stereo unspecified),"inconclusive: 1.26 µM [inhibitor, single point]"
12,CC(/C=C/c1ccco1)=N/NC(=O)c1ccccc1Cl,"inconclusive: 31.6 µM [activator, single point]"
13,COc1ccc(C2=NO[C@@](CC(=O)O)(C(=O)Nc3ccc4c(c3)OCCO4)C2)cc1,"inconclusive: 35.5 µM [activator, single point]"
14,CCCCOC(=O)C1C2CCC(O2)C1C(=O)OCC (stereo unspecified),inactive
15,COCCNC(=S)N1CCC(c2nc(-c3ccc(F)cc3)no2)CC1,inactive
16,Cc1ccc(NC(=S)c2nc3ccccc3[nH]2)cc1,"inconclusive: 11.2 µM [inhibitor, single point]"
17,CN1CCN(c2ccc([N+](=O)[O-])c(Sc3nc4ccccc4[nH]3)c2)CC1,inactive
18,O=C(Nc1cccnc1)C1OCCc2ccccc21 (stereo unspecified),inactive
19,CC(C)(C)c1ccc(OCC(=O)N/N=C/c2ccc(N3CCOCC3)cc2)cc1,inactive
20,CCn1nc(-c2ccccc2)c(-c2ccccc2)c(C(=O)Nc2ccc(S(N)(=O)=O)cc2)c1=O,inactive
21,O=C1CCc2cc(S(=O)(=O)N3CCN(c4cccc(Cl)c4)CC3)ccc2N1,"inconclusive: 5.8 µM [inhibitor, full curve]"

# An excerpt of these results, tab-delimited.
row	SMILES	Potency
1	Cc1ccc(NC(=O)NCc2ccccn2)c(C)c1	inactive
2	C=C(CC)C(=O)c1ccc(OCC(=O)O)c(Cl)c1Cl	inconclusive: 18.4 µM [inhibitor, single point]
